Data: PMC4704385
These are yes or no findings as the source states them, for the method shown. In cells and extracts the contact can be indirect. Some binding calls cover weakened binding; strength is not graded here.

Amino acid sequences for entries named in this document (tags omitted).
UniProt Q04206: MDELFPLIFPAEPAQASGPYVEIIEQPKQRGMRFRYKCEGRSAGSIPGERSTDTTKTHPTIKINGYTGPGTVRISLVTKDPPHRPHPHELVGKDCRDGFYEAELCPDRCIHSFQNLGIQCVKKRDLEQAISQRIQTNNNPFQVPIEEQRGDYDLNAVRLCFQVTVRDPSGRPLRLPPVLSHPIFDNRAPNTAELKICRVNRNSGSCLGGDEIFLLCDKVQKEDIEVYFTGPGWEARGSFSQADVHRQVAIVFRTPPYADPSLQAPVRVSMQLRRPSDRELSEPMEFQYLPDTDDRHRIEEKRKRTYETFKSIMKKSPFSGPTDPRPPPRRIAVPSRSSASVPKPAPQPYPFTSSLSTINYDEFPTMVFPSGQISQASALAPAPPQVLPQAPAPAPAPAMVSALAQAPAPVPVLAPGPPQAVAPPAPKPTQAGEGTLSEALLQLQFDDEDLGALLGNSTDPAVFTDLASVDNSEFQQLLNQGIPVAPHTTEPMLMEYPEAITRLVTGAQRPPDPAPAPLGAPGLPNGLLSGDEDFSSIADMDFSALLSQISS
UniProt P14618: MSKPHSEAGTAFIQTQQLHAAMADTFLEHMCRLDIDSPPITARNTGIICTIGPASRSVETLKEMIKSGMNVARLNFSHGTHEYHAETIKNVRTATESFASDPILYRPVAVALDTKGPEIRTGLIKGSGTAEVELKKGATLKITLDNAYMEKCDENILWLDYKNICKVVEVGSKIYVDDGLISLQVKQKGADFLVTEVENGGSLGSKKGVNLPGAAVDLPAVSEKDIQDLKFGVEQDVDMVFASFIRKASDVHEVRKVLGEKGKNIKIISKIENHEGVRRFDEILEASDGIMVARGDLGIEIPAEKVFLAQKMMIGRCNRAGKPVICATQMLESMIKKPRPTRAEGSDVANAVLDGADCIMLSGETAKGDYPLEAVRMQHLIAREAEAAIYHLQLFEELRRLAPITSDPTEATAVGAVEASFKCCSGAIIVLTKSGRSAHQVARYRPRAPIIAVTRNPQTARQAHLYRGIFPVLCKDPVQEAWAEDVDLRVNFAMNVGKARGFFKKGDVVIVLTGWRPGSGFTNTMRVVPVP
UniProt Q16665: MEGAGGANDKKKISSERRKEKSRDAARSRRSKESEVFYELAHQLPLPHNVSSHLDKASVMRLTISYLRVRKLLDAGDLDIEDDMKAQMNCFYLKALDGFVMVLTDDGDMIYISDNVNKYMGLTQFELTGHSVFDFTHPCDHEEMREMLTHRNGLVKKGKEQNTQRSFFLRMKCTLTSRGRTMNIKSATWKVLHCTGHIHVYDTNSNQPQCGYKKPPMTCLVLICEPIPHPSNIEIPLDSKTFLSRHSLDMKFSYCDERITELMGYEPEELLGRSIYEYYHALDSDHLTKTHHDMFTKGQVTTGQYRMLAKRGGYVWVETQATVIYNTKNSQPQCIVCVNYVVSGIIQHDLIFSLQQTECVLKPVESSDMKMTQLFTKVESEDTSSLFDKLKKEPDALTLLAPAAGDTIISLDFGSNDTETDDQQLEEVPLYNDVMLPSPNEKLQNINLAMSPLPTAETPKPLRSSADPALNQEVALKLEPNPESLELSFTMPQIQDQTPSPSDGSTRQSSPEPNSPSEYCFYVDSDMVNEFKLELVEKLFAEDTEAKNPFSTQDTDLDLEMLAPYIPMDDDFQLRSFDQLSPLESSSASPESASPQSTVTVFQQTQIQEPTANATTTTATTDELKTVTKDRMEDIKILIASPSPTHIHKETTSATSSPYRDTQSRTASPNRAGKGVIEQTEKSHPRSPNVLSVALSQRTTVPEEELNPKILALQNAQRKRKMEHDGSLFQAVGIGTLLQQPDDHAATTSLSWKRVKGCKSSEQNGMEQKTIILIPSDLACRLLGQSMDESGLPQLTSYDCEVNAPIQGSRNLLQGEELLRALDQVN

Experiments:
[1] = molecular target: NF-κB subunit p65/RelA (human (endogenous in PaTu2 and BxPC3)) (UniProt Q04206); experiment: co-IP; immunoprecipitation of endogenous p65 from lysates of PaTu2 and BxPC3 cells; blot for PKM2, reprobed for p65; IP lysis buffer 10 mM Tris-HCl, 5 mM EDTA, 50 mM NaCl, 50 mM NaF, 1 % Triton X100; 2 μg antibody and Protein G-Sepharose
[2] = molecular target: M2 isoform of pyruvate kinase (PKM2) (human (endogenous in PaTu2 and BxPC3)) (UniProt P14618); experiment: co-IP; immunoprecipitation of endogenous PKM2 from lysates of PaTu2 cells cultivated in normoxia or hypoxia; blot for HIF-1α and PKM2; IP lysis buffer 10 mM Tris-HCl, 5 mM EDTA, 50 mM NaCl, 50 mM NaF, 1 % Triton X100; 2 μg antibody and Protein G-Sepharose

Row | binding [1] | binding [2] | Substance
1 | binds |  | M2 isoform of pyruvate kinase (PKM2) (from UniProt P14618 1-531)
2 |  | binds | hypoxia-inducible factor alpha (HIF-1α) (from UniProt Q16665 1-826)
